Here are results for 16 compounds from PubChem BioAssay AID2685 (National Center for Advancing Translational Sciences (NCATS), 2010).

This assay in a line: qHTS Assay for Lipid Storage Modulators in Drosophila S3 Cells.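 As to cell number change: cells counted by Cell Tracker Red CMTPX staining in the red channel.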 As to conditions: BODIPY lipid droplet fluorescence, 18-24 h; for cell number change: measured here: cell count max response, cells fed with added oleic acid. An outline of the steps: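 Drosophila S3 cells got compounds at several concentrations plus oleic acid (400 uM solution). Laser-scanning cytometry with 488 nm excitation read lipid droplets at 500-530 nm and cells at 575-640 nm. Percent activity was relative to 20 uM Triacsin C.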

[1] abbreviates: measured here: lipid fluorescence (Fed channel) AC50, cells fed with added oleic acid.
Where [2] appears, read: measured here: cell number channel AC50, cells fed with added oleic acid.

The list shows a part of the results. These are further read-outs of the screen, such as a control signal, another cell line or another target. No call is given for them. Most of these compounds were active or inconclusive in the main read-out, so they are no random draw. The note in brackets gives the kind of curve behind each potency; many fits are weak.

Regarding `Cc1cccc(C(=O)NCC(=O)N2CCN(S(=O)(=O)c3cc(C)ccc3C)CC2)c1`, the cell number change stood at 12.2%. The AC50 under setting [1] was 29.1 µM [rising, single point].

On to `COc1ccccc1C(=O)NC(=Nc1nc2ccccc2o1)NC(=O)c1ccccc1OC`, for which the cell number change was -150%. Also, the half-maximal activity concentration (AC50) under setting [1] was 29.1 µM [falling, single point].

As for `CN1C(=O)C(O)(CC(=O)c2ccncc2)c2ccccc21` (stereo not drawn), the half-maximal activity concentration (AC50) under setting [2] was 0.00411 µM [rising, full curve, poor fit].

As to `COC(=O)c1n[nH]nc1-c1ccccc1`, the AC50 under setting [2] is 6.51 µM [rising, partial curve, poor fit].

Take `Cc1onc(COc2ccccc2O)c1Br`: the cell number change is -35.5%. The AC50 under setting [2] was 1.16 µM [falling, full curve, poor fit]. Besides, the AC50 under setting [1] was 5.8 µM [falling, full curve].

For the compound `CCCCN(c1ccc(C(=O)OC)cc1)S(=O)(=O)c1ccccc1`, the cell number change worked out at 61.1%. Moreover, under setting [2], the AC50 was 20.6 µM [rising, single point]. Further, the half-maximal activity concentration (AC50) under setting [1] was 25.9 µM [rising, single point].

Consider `CSc1ccccc1NC(=O)C1CCN(S(C)(=O)=O)CC1`, for which the cell number change worked out at 37.8%. Under setting [2], the half-maximal activity concentration (AC50) is 29.1 µM [rising, partial curve, poor fit].

In the case of `C#CCOc1ccc(/C=C2\SC(=S)N(Cc3cccnc3)C2=O)cc1`, the cell number change was -4.32%. Further, the half-maximal activity concentration (AC50) under setting [1] was 0.58 µM [rising, full curve].

Consider `CCOC(=O)Cn1cnc2scc(-c3ccccc3)c2c1=O`, for which the cell number change came out at 18.9%. Under setting [1], the AC50 was 2.91 µM [falling, single point].

On to `Cc1ccc(-c2csc(N3CCC(C(N)=O)(N4CCCCC4)CC3)n2)cc1`, for which the cell number change is -1.21%. Besides, the AC50 under setting [1] is 29.1 µM [rising, single point].

`COc1cc(NC(=O)NCCN2CCN(c3ccccc3)CC2)cc(OC)c1OC`: the cell number change is 6.94%. Also, under setting [2], the AC50 was 7.31 µM [rising, partial curve, poor fit]. The concentration at half-maximal activity (AC50) under setting [1] is 6.51 µM [falling, single point].

As for `O=C(Nc1cccc(Cl)c1)Nc1ccc2c(c1)OCO2`, the cell number change was -22.3%. Moreover, under setting [1], the AC50 is 2.06 µM [rising, partial curve].

In the case of `COc1ccc(CN/C(C)=C(/C#N)C(N)=O)cc1OC`, the cell number change came out at 46.1%. Further, the half-maximal activity concentration (AC50) under setting [2] is 13 µM [rising, single point].

As for `COc1ccccc1NC(=O)COC(=O)c1cc2ccccc2cc1O`, the cell number change is -39.8%. Under setting [2], the concentration at half-maximal activity (AC50) is 32.6 µM [falling, single point].

Turning to `Cc1ccc(N(C)C(=O)CCS(=O)(=O)c2cc3c(cc2Cl)NC(=O)CO3)cc1`, the cell number change is 0.288%. Also, the AC50 under setting [1] was 0.0517 µM [rising, full curve, poor fit].

Turning to `CCc1cc2c(COC(=O)CCNS(=O)(=O)c3cccc(C(F)(F)F)c3)cc(=O)oc2cc1O`, the cell number change is -35.1%. In addition, the half-maximal activity concentration (AC50) under setting [2] is 20.6 µM [falling, single point].
